The supplement of paper PMC10849652
The other results are listed elsewhere or left out.

Chains of the proteins cited; added tags and fusions are not shown. Lines headed by an entry give the natural chain unless they say otherwise; changes in a name come on top.
UniProt Q6R327, whole entry, looked up: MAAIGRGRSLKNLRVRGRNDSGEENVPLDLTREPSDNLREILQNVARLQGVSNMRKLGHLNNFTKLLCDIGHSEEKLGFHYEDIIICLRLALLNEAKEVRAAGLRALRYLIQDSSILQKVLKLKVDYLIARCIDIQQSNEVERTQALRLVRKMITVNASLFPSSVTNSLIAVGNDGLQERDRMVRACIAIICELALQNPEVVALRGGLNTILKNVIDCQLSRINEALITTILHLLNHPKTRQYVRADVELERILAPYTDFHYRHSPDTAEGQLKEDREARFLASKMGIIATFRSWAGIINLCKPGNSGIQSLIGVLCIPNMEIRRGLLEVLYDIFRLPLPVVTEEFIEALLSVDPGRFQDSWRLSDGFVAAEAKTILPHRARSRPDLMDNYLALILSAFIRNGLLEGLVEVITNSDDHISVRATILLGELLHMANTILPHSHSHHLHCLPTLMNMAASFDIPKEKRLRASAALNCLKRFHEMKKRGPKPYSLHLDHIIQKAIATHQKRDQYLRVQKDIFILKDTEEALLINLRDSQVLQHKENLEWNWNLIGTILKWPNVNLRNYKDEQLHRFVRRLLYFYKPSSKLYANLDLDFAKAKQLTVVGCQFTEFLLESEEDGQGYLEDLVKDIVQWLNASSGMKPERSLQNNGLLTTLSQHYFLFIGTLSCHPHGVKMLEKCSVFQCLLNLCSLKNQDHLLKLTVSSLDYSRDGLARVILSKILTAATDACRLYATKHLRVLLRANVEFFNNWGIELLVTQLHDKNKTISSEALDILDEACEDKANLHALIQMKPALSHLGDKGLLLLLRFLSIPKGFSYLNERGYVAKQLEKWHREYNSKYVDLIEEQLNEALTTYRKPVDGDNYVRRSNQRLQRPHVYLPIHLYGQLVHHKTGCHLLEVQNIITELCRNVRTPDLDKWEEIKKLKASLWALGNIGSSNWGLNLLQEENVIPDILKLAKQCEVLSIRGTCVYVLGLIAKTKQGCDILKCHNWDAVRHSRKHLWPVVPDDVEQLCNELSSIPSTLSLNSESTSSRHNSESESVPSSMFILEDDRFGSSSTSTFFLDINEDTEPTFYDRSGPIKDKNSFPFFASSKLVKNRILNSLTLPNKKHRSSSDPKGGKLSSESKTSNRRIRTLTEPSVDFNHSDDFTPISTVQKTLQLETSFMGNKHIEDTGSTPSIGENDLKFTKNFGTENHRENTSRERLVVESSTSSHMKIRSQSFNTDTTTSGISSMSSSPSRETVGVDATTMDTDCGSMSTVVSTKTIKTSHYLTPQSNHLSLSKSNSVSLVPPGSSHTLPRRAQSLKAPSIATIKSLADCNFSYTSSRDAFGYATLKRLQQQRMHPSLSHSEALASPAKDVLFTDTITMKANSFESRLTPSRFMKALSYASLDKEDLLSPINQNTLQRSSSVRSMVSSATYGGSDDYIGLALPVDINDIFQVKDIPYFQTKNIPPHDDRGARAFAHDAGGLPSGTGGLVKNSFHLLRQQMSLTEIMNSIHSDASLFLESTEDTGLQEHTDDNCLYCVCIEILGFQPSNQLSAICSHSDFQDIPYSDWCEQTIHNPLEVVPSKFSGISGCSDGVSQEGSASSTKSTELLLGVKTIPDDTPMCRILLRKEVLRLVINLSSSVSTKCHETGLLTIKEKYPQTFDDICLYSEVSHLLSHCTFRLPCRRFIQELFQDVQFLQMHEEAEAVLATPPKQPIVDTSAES
UniProt Q96E14: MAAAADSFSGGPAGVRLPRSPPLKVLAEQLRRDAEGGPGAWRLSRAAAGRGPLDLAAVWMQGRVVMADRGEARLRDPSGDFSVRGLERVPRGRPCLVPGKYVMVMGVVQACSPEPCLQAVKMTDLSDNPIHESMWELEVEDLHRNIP
UniProt Q96BH1: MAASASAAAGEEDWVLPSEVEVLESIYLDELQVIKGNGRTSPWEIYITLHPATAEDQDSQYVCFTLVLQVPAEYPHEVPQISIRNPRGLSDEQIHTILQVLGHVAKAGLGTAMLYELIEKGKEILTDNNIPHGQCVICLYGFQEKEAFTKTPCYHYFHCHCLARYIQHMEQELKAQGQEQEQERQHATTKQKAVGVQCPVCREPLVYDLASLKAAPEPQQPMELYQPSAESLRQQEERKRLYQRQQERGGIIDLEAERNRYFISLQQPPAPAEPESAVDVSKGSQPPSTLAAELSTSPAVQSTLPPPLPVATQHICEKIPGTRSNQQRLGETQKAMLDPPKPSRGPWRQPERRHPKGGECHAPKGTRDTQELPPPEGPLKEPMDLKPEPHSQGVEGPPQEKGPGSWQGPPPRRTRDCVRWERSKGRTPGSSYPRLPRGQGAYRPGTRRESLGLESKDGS
UniProt Q9H6W3: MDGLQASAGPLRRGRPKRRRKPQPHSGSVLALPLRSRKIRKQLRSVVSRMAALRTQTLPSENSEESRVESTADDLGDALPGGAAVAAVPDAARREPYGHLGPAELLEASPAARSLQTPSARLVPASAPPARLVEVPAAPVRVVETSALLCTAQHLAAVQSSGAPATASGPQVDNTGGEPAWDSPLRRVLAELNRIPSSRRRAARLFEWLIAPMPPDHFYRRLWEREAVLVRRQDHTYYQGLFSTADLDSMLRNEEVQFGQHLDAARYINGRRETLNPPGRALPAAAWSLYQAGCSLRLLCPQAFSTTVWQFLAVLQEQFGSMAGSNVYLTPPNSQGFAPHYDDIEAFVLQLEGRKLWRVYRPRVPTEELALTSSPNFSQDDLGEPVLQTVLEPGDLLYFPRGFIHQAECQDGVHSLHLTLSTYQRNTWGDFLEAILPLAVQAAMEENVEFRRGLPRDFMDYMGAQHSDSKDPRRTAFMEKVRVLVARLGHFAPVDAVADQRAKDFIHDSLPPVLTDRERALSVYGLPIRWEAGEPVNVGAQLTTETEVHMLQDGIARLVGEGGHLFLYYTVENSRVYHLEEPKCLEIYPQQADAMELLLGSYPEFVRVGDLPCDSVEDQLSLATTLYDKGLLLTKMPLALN
UniProt Q7L0Q8: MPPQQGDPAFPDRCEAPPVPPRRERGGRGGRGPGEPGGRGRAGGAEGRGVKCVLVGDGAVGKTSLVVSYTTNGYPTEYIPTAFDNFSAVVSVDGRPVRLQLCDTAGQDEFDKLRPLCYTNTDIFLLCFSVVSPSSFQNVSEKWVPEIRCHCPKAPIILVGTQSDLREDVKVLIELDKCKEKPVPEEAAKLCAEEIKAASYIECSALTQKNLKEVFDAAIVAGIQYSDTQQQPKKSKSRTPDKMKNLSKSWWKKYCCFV
UniProt Q9HAU8: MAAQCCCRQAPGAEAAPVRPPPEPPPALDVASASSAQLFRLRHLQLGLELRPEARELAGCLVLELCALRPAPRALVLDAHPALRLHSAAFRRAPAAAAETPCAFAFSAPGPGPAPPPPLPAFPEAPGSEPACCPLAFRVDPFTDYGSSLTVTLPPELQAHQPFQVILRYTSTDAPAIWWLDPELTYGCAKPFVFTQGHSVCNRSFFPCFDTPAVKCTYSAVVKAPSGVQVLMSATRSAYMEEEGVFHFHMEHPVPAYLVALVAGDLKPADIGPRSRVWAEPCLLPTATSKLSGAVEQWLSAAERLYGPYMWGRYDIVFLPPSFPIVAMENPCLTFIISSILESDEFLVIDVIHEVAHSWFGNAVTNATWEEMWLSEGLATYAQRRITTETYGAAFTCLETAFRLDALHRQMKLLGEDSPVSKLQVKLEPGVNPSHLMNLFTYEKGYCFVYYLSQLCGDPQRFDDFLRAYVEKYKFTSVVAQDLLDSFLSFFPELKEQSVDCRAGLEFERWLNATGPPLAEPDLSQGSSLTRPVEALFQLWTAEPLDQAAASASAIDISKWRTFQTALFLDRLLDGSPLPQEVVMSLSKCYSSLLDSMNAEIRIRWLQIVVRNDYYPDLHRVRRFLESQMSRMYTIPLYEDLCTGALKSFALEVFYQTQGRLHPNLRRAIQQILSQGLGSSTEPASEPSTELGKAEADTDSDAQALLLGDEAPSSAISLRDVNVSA
UniProt Q96NA2: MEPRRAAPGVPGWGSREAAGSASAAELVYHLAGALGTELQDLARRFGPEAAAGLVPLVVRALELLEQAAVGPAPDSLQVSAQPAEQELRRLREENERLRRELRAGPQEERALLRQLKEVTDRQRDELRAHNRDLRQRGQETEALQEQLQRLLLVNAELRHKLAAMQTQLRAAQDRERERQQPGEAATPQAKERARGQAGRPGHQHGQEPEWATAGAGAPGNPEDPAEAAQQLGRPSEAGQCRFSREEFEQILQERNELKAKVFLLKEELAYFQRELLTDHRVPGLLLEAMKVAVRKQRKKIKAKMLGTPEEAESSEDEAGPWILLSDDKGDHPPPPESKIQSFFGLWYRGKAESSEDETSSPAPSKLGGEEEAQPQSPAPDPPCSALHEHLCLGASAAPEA
UniProt Q9BRS2: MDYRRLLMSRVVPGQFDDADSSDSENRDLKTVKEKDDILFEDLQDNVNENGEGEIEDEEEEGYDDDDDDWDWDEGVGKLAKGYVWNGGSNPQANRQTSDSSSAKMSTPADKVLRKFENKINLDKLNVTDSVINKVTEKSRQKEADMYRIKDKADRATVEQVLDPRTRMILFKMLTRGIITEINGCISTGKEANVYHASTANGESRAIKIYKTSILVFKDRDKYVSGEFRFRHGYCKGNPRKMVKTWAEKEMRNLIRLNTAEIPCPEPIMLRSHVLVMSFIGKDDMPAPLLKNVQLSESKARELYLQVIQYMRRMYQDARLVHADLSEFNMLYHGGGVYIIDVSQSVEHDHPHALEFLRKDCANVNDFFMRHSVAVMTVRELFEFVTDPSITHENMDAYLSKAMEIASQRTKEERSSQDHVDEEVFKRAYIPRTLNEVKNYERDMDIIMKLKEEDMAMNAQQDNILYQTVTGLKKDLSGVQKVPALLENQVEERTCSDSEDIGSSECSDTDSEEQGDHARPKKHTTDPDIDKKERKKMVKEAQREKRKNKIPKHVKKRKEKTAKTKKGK
UniProt P15927: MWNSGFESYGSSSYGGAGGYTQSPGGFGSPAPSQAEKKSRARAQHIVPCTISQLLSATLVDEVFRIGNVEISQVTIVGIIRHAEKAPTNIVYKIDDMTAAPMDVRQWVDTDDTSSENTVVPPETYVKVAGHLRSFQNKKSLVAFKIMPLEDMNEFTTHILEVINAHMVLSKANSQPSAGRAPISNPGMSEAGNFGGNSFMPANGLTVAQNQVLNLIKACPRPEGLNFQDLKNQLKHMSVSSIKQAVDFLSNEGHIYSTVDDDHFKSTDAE
UniProt Q99496: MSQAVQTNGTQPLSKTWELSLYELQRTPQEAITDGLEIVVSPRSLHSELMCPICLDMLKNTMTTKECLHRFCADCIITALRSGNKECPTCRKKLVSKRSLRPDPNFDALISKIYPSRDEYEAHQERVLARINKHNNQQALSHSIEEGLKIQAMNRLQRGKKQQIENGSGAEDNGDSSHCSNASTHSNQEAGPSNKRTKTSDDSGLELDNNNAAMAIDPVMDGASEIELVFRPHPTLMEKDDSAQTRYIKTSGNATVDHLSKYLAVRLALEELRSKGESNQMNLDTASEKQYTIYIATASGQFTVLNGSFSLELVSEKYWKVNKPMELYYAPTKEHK
UniProt P84095: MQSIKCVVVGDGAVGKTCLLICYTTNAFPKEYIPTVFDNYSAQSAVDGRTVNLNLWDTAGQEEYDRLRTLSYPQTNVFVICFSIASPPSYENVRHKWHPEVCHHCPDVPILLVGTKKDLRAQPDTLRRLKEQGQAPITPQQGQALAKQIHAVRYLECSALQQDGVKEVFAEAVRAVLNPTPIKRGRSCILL
UniProt P27694, whole entry, looked up: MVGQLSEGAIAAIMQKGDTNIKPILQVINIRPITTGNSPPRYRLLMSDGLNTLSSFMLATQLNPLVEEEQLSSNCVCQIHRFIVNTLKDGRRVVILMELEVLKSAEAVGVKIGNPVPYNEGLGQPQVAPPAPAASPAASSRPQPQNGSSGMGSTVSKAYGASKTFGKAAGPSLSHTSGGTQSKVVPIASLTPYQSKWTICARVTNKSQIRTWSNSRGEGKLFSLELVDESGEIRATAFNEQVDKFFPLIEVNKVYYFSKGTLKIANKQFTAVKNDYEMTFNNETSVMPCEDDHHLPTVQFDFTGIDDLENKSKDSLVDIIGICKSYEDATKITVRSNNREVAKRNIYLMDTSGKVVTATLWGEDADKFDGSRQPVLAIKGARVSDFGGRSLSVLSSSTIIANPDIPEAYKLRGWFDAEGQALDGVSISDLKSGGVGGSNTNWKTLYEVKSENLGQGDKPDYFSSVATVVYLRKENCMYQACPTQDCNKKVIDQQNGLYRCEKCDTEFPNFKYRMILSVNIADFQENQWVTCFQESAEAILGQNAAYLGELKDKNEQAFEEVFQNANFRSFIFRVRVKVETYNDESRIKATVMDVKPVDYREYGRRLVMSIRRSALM

Experiments:
Test in all cases: log2 fold change, soluble protein after heating vs DMSO (PISA); higher = thermal stabilisation; K562 lysate, 10 uM; active = over 0.2 and 3.5 SD of the protein, either way, in both replicates (recomputed)
[1] = compound: C#Cc1cccc(Nc2ncnc3cc(OCCOC)c(OCCOC)cc23)c1 [erlotinib]
In short: (§1)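 Values give the log-two fold change in thermal stability against solvent controls, from duplicates. Crude K562 extract at 1 mg/mL protein, made by dounce homogenisation in PBS pH 7.4 with 1 mM MgCl2, was treated with 10 μM compound for 30 min. After 3 min heating across 48°C-58°C, aliquots were pooled, adjusted to 0.5% NP-40 at 4°C and centrifuged at 21,000xg for 90 min. The supernatant was measured by TMTpro 16plex LC-MS/MS with channel sums equalised.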

[2] = compound: C/C(=N\NC(=O)C1=CC(=CC=C1)S(=O)(=O)N2CCOCC2)/C3=C(C=CC(=C3)Cl)O
In short: as §1

[3] = compound: C1=CC(=CC=C1C2=NC3=C(N2)C=C(C=C3)C(=O)N)OC4=CC=C(C=C4)Cl
In short: as §1

[4] = compound: C1=CC2=C(C=CC(=C2)/C=C\3/C(=O)NC(=NCC4=CC=CS4)S3)N=C1
In short: as §1

[5] = compound: C1=CC2=NC=CN=C2C=C1/C=C/3\C(=O)NC(=O)S3
In short: as §1

[6] = compound: C1=CC=C(C=C1)C2=NC(=C(N2)C3=CC=NC=C3)C4=CC(=C(C=C4)Cl)O
In short: as §1

[7] = compound: C1=CC=C2C(=C1)C3=NNC4=CC=CC(=C43)C2=O
In short: as §1

[8] = compound: C1CCN(C1)C(=O)NC2=CC=CC(=C2)NC3=NC=C(C(=N3)NCCC4=CN=CN4)Br
In short: as §1

[9] = compound: C1CN(CCC1(CC2=CC=C(C=C2)Cl)N)C3=NC=NC4=C3C=CN4
In short: as §1

[10] = compound: C1COCCN1CCN2C3=CC=CC=C3N=C2NC(=O)C4=CC(=CC=C4)[N+](=O)[O-] [IRAK-1-4 Inhibitor I]
In short: as §1

[11] = compound: C=CC(=O)N1CCC[C@@H](n2nc(-c3ccc(Oc4ccccc4)cc3)c3c(N)ncnc32)C1 [ibrutinib]
In short: as §1

[12] = compound: CC(=O)c1cnc2ccc(-c3cc(Cl)c(O)c(Cl)c3)nc2c1N[C@H]1CC[C@H](CN(C)C)CC1
In short: as §1

[13] = compound: CC(C)(C)Cn1c(N)nc2ccc(-c3[nH]c(C(C)(C)C)nc3-c3ccc(F)cc3)nc21 [ralimetinib]
In short: as §1

[14] = compound: CC(C)(O)CC(=O)NCCn1ccc2ncnc(Nc3ccc(Oc4cccc(C(F)(F)F)c4)c(Cl)c3)c21
In short: as §1

[15] = compound: CC(C)C1=C2N=C(C=C(N2N=C1)NCC3=CC=CC=C3)NCCCCCCN
In short: as §1

[16] = compound: CC1=C(C(CC(=O)N1)C2=CC=C(C=C2)C(F)(F)F)C(=O)NC3=C(C=C4C(=C3)C=NN4)F
In short: as §1

[17] = compound: CC1=C(C2=C(C=C1)C(=O)C3=CC=CC=C3N2CCCN)C
In short: as §1

[18] = compound: CC1=C(C=C(C=C1)NC(=O)C2=CC(=CC=C2)C(C)(C)C#N)NC3=CC4=C(C=C3)N=CN(C4=O)C
In short: as §1

[19] = compound: CC1=C(C=C(C=C1)NC(=O)C2=CC(=CC=C2)N(C)C)NC(=O)C3=CC=C(C=C3)O
In short: as §1

[20] = compound: CC1=CC=C(C=C1)SC2=C3C=C(SC3=CN=C2)C(=O)N
In short: as §1

Measured: log2 fold change

RICTOR isoform 3 (UniProt Q6R327)
inactive: [1] -0.142 | [2] 0.238 | [3] 0.05 | [4] -0.192 | [5] 0.252 | [6] 0 | [7] 0.086 | [8] -0.009 | [9] -0.033 | [10] 0.001 | [11] 0.272 | [12] -0.008 | [13] 0 | [14] -0.046 | [15] -0.138 | [16] 0.028 | [17] 0.071 | [18] 0.022 | [19] 0.039 | [20] -0.054

RMI2 (UniProt Q96E14)
inactive: [1] 0.051 | [2] -0.246 | [3] -0.121 | [4] 0.206 | [6] 0.002 | [7] -0.121 | [8] -0.044 | [9] 0.117 | [10] 0.054 | [13] -0.061 | [14] 0.007 | [15] -0.032 | [17] 0.021 | [18] 0.011 | [19] 0.039

RNF31 (UniProt Q96EP0)
inactive: [1] 0.013 | [2] 0.004 | [3] 0.038 | [4] 0.002 | [5] -0.068 | [6] -0.013 | [7] 0.034 | [8] -0.033 | [9] 0.009 | [10] -0.064 | [11] -0.001 | [12] -0.067 | [13] 0.028 | [14] 0.001 | [15] -0.013 | [16] -0.028 | [17] -0.036 | [18] -0.036 | [19] 0.04 | [20] 0.006

RPL35 (UniProt P42766)
inactive: [1] -0.052 | [2] -0.073 | [3] 0.004 | [4] 0 | [5] -0.02 | [6] 0.027 | [7] 0.041 | [8] 0.013 | [9] -0.029 | [10] 0.029 | [11] -0.009 | [12] -0.131 | [13] -0.013 | [14] -0.006 | [15] 0.021 | [16] -0.019 | [17] -0.062 | [18] -0.019 | [19] -0.03 | [20] 0.021

RNF25 (UniProt Q96BH1)
inactive: [1] -0.004 | [2] -0.051 | [3] 0.027 | [4] 0.055 | [5] -0.011 | [6] -0.003 | [7] -0.005 | [8] 0 | [9] -0.015 | [10] 0.012 | [11] 0.021 | [12] 0.03 | [13] -0.004 | [14] 0.019 | [15] 0.042 | [16] -0.02 | [17] -0.009 | [18] 0.023 | [19] 0.006 | [20] -0.028

RIOX1 (UniProt Q9H6W3)
inactive: [1] 0.043 | [2] -0.429 | [3] 0.101 | [4] 0.079 | [6] -0.144 | [7] 0.145 | [8] -0.003 | [9] 0.018 | [10] 0.007 | [12] 0 | [13] 0.112 | [14] -0.116 | [15] -0.083 | [16] -0.236 | [17] -0.042 | [18] 0.033 | [19] -0.072 | [20] 0.11

RHOU (UniProt Q7L0Q8)
inactive: [1] -0.052 | [2] 0.07 | [3] -0.096 | [4] -0.054 | [6] 0.002 | [7] 0.061 | [8] -0.006 | [9] 0.03 | [10] -0.089 | [12] -0.007 | [13] 0.057 | [14] 0.009 | [15] 0.066 | [16] 0.012 | [17] 0.015 | [18] -0.003 | [19] 0.019 | [20] 0.045

RPL36 (UniProt Q9Y3U8)
inactive: [1] 0.021 | [2] -0.702 | [3] -0.034 | [4] -0.017 | [5] 0.011 | [6] 0.009 | [7] 0.033 | [8] 0.017 | [9] -0.006 | [10] 0.022 | [11] -0.003 | [12] -0.002 | [13] 0.004 | [14] -0.025 | [15] -0.043 | [16] -0.02 | [17] -0.016 | [18] -0.004 | [19] -0.001 | [20] 0.003

Pulled one by one from the entries so far (two):
RNF25 (UniProt Q96BH1)
inactive: [1] -0.004 | [2] -0.051 | [3] 0.027 | [4] 0.055 | [5] -0.011 | [6] -0.003 | [7] -0.005 | [8] 0 | [9] -0.015 | [10] 0.012 | [11] 0.021 | [12] 0.03 | [13] -0.004 | [14] 0.019 | [15] 0.042 | [16] -0.02 | [17] -0.009 | [18] 0.023 | [19] 0.006 | [20] -0.028

RHOU (UniProt Q7L0Q8)
inactive: [1] -0.052 | [2] 0.07 | [3] -0.096 | [4] -0.054 | [6] 0.002 | [7] 0.061 | [8] -0.006 | [9] 0.03 | [10] -0.089 | [12] -0.007 | [13] 0.057 | [14] 0.009 | [15] 0.066 | [16] 0.012 | [17] 0.015 | [18] -0.003 | [19] 0.019 | [20] 0.045

Further records follow.

RNPEPL1 (UniProt Q9HAU8)
inactive: [1] -0.095 | [2] -0.069 | [3] 0.096 | [4] 0.096 | [6] -0.086 | [7] 0.141 | [10] 0.014 | [12] -0.116 | [13] 0.019 | [14] 0.005 | [15] -0.017 | [16] 0.141 | [17] -0.017 | [18] -0.004 | [19] 0.039 | [20] -0.049

RILP (UniProt Q96NA2)
inactive: [1] -0.074 | [2] 0.014 | [3] 0 | [4] -0.017 | [5] -0.014 | [6] -0.004 | [7] -0.006 | [8] -0.009 | [9] -0.024 | [10] -0.002 | [11] 0.034 | [12] 0.044 | [13] 0.013 | [14] 0.026 | [15] -0.001 | [16] 0.032 | [17] 0.021 | [18] -0.004 | [19] 0.013 | [20] -0.015

RPL31 (UniProt P62899)
inactive: [1] -0.018 | [2] -0.097 | [3] -0.03 | [4] -0.01 | [5] 0.001 | [6] 0 | [7] 0.038 | [8] 0.043 | [9] -0.039 | [10] 0.026 | [11] -0.031 | [12] -0.011 | [13] 0.009 | [14] -0.022 | [15] 0.003 | [16] -0.06 | [17] -0.043 | [18] -0.013 | [19] -0.021 | [20] 0.016

RIOK1 (UniProt Q9BRS2)
active: [5] 0.393 | [7] 0.4
inactive: [1] -0.033 | [2] -0.029 | [3] 0.034 | [4] 0.209 | [6] 0.128 | [8] -0.024 | [9] 0.028 | [10] -0.02 | [11] 0.006 | [12] 0.251 | [13] 0.002 | [14] -0.003 | [15] -0.005 | [16] 0.004 | [17] -0.009 | [18] 0.015 | [19] -0.009 | [20] 0.249

RPA2 isoform 3 (UniProt P15927)
inactive: [1] 0.009 | [2] 0.04 | [3] 0.024 | [4] 0.001 | [5] 0.005 | [6] -0.007 | [7] 0.018 | [8] 0.001 | [9] 0.011 | [10] 0.001 | [11] -0.007 | [12] -0.013 | [13] 0.005 | [14] -0.003 | [15] -0.006 | [16] -0.037 | [17] 0.002 | [18] 0.019 | [19] -0.002 | [20] -0.012

RPL21 (UniProt P46778)
inactive: [1] -0.026 | [2] -0.04 | [3] -0.014 | [4] -0.015 | [5] -0.044 | [6] 0.02 | [7] 0 | [8] 0.008 | [9] -0.016 | [10] 0.032 | [11] 0.012 | [12] -0.022 | [13] -0.019 | [14] -0.038 | [15] 0.021 | [16] -0.033 | [17] -0.016 | [18] 0.015 | [19] 0.003 | [20] 0.009

RNF2 (UniProt Q99496)
inactive: [1] 0.061 | [2] -0.088 | [3] -0.031 | [4] 0.036 | [6] 0.002 | [7] -0.01 | [8] 0.048 | [9] -0.037 | [10] -0.039 | [13] -0.053 | [14] -0.01 | [15] 0.017 | [16] 0.009 | [17] -0.081 | [18] -0.048 | [19] 0.024

RHOG (UniProt P84095)
inactive: [1] -0.007 | [2] -0.004 | [3] -0.002 | [4] -0.037 | [5] -0.011 | [6] -0.001 | [7] -0.014 | [8] -0.027 | [9] 0.018 | [10] 0.008 | [11] 0.037 | [12] 0.011 | [13] -0.054 | [14] 0.03 | [15] -0.015 | [16] -0.019 | [17] -0.025 | [18] 0.025 | [19] -0.024 | [20] 0

RPA1 (UniProt P27694)
inactive: [1] 0.014 | [2] -0.055 | [3] 0.019 | [4] -0.004 | [5] 0.005 | [6] -0.003 | [7] 0.009 | [8] -0.006 | [9] 0.009 | [10] -0.005 | [11] 0.015 | [12] -0.028 | [13] 0.012 | [14] -0.032 | [15] -0.01 | [16] -0.011 | [17] 0.007 | [18] 0.012 | [19] 0.007 | [20] -0.02
